PubChem BioAssay AID504467 (National Center for Advancing Translational Sciences (NCATS), 2011)
Out of some 330,000 compounds screened, about 7,700 (2.3%) were called active. Inconclusive results, whose numbers are uncertain, are shown with a selection of clear calls. The call rests on the fitted dose curve; in most records, active means well fitted inhibition curve with a large enough effect; inconclusive means small, poorly fitted or top-dose-only effect, or effect the other way; inactive means flat fitted curve, though single readings scatter. Where the call is inconclusive, the potency comes from a doubtful curve fit.

Assay: qHTS screen for small molecules that inhibit ELG1-dependent DNA repair in human embryonic kidney (HEK293T) cells expressing luciferase-tagged ELG1; further: nearly all actives have a fitted effect of over 55% in size
Conditions: HEK293T ELG1-luciferase reporter, luminescence, 16 h, DNA damage induced by 5-fluorouridine; series mostly up to 46.1 µM
In short: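 Cells (2,000 per well) received 5-fluorouridine plus test compound or DMSO and were incubated 16 hr at 37 °C, 5% CO2. Luciferase activity was read by luminescence 30 min after ONE-Glo addition; signal suppression marked inhibition of damage-induced ELG1 function.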
Potency means the concentration at half of the fitted maximal effect.

| SMILES | Potency |
| --- | --- |
| O=C(CN1CCOCC1)Nc1scc2c1c(=O)oc1ccccc12 | inconclusive: 20.6 µM [inhibitor, partial curve, poor fit] |
| Nc1c(N2CCCCC2)c2ccccc2oc1=O | inactive |
| CC(C)Oc1cccc(C(=O)C2CCCN(Cc3cccn3-c3ccccn3)C2)c1 (configuration not stated) | inconclusive: 29.1 µM [inhibitor, single point] |
| Cc1ccc(-c2nc3ccccn3c2C=O)cc1 | inconclusive: 10.3 µM [activator, partial curve] |
| CCN(CC)CCn1c2c(c(SCC(=O)Nc3ccc4c(c3)OCO4)nc1=O)CCC2 | inactive |
| COc1cc2ccccc2cc1C(=O)Nc1ccncc1 | inconclusive: 25.9 µM [activator, single point] |
| C=CCNC(=S)NNC(=O)C(CC(C)C)CC(C)O (configuration not stated) | inactive |
| CC(C)(C)OC(=O)N1CCCC(C(=O)Nc2ccc(C(=O)N3CCCC3)cc2)C1 (configuration not stated) | inactive |
| CCNc1nc2c(c(=O)n(C)c(=O)n2C)n1CCCc1ccccc1 | inconclusive: 23.1 µM [inhibitor, partial curve, poor fit] |
| Cc1ccc(NC(=O)NC2CCCCC2)cc1S(=O)(=O)N1CCOCC1 | inconclusive: 18.3 µM [inhibitor, single point] |
| Cc1ccc(OCC(=O)N2CCc3ccccc3C2)c(Br)c1 | inconclusive: 20.6 µM [activator, partial curve] |
| CCOC(=O)c1ccc(-c2ccc(/C=N/NC(=O)CN(c3ccccc3Cl)S(C)(=O)=O)o2)cc1 | inconclusive: 29.1 µM [inhibitor, single point] |
| COc1c(OC)c(O)c2c(=O)c(O)c(-c3ccccc3)oc2c1OC | inconclusive: 23.1 µM [inhibitor, partial curve] |
| Cc1ccc(N2C(=O)CS/C2=N\C(=S)Nc2ccccc2)cc1 | inactive |
| Cc1cccc(C)c1OCc1cc(C(=O)NCC2CC2)no1 | inactive |
| O=C(c1cc(-c2ccccc2Cl)on1)N1CCN(C(=O)c2ccco2)CC1 | inactive |
| COc1cc(C(=O)NCc2ccco2)c(Br)c(OC)c1OC | inactive |
| CC(C(=O)O)N1C(=O)C2C3CC(C2C1=O)C1C(c2ccccc2)c2sc(=O)[nH]c2SC31 (configuration not stated) | inactive |
| COc1ccc(CNC(=O)c2cc3ccccc3oc2=O)cc1 | inactive |
| CN(C)c1ccc(NC(=O)c2cccc(N3C(=O)CCC3=O)c2)cc1 | inconclusive: 20.6 µM [activator, single point] |
| NC(=O)c1ccccc1NC(=O)COc1ccc(Cl)cc1 | inconclusive: 14.6 µM [activator, partial curve] |
| COc1cc(C(=O)OCCc2cc3ccccc3c(=O)o2)cc(OC)c1OC | inconclusive: 3.66 µM [inhibitor, partial curve] |
| CCCn1c(SCC(=O)c2cc(C)n(C3CC3)c2C)n[nH]c1=O | inconclusive: 4.61 µM [activator, full curve, poor fit] |
| N=c1ccn(Cc2ccc(Cl)c(Cl)c2)cc1 | active: 4.61 µM |
| Cc1c(C)[n+](=O)c(-c2cccs2)c(C)n1[O-] | inactive |
| CC(=O)O[C@H]1CC[C@@]2(C)[C@@H](CC[C@H]3[C@@H]4CC[C@H](C(C)O)[C@@]4(C)CC(=O)[C@@H]32)C1 (some centres not stated) | inactive |

Single entries from the results shown.
`Cc1ccc(OCC(=O)N2CCc3ccccc3C2)c(Br)c1` | Potency: inconclusive: 20.6 µM [activator, partial curve]
`COc1ccc(CNC(=O)c2cc3ccccc3oc2=O)cc1` | Potency: inactive

Next compounds.

| SMILES | Potency |
| --- | --- |
| CC(=O)c1ccc2c(c1)OCCOCCOCCOCCOCCO2 | inactive |
| Clc1ccc(C2=NN=C3COc4ccccc4N3C2)cc1 | inactive |
| CCOc1ccc(-n2c(=O)c3c4c(sc3n(CC(=O)NCc3ccco3)c2=O)CCC4)cc1 | inactive |
| CN1CCN(c2nc(Nc3cccc(C(F)(F)F)c3)nc(N3CCOCC3)n2)CC1 | inconclusive: 8.2 µM [inhibitor, partial curve, poor fit] |
| Cc1cc(C)cc(NC(=O)C(c2ccccc2)N2CCN(CC(=O)NC3CC3)CC2)c1 (configuration not stated) | inactive |
| CC(C(=O)N(C)C1CCCCC1)N1CCC(C(N)=O)CC1 (configuration not stated) | inactive |
| C/C(=N\NC(=S)NCc1ccccc1)c1ccc(C(C)(C)C)cc1 | inconclusive: 20.6 µM [inhibitor, single point] |
| COc1ccc(N(CC(=O)NC2CCCCC2)C(=O)CCCC(=O)Nc2ccccn2)cc1 | inactive |
| COc1cc(/C=N/NC(=O)Cc2ccc(Br)cc2)cc(OC)c1O | inconclusive: 20.6 µM [inhibitor, single point] |
| Cc1nc2nc(C)c(CCC(=O)N3CCc4ccccc43)c(C)n2n1 | inactive |
| O=C(/C=C/c1cccc([N+](=O)[O-])c1)N1CCN(Cc2ccc3c(c2)OCO3)CC1 | inconclusive: 25.9 µM [inhibitor, single point] |
| CCN1C(=O)[C@H]2[C@@H](c3ccc(C)cc3)N3C(=O)N(c4ccc(OC)cc4)C(=O)[C@@]3(C)[C@H]2C1=O | inactive |
| CC(=O)Nc1ccc(C(=O)Nc2nc(-c3ccccn3)cs2)cc1 | inconclusive: 29.1 µM [inhibitor, single point] |
| COc1cc2c(cc1NC(=O)C(C)OC(=O)C1CC(=O)N(Cc3ccco3)C1)oc1ccccc12 (configuration not stated) | inconclusive: 20.6 µM [activator, partial curve] |
| O=C1N=C(N2CCOCC2)S/C1=C/c1ccc(-c2ccccc2Cl)o1 | inactive |
| Cc1ccc(C)c(NC(=O)c2nc(-c3ccccc3)n(-c3ccccc3)n2)c1 | inconclusive: 20.6 µM [inhibitor, single point] |
| COc1cccc(-c2nnc(NC(=O)c3ccco3)s2)c1 | inconclusive: 8.2 µM [activator, partial curve] |
| COc1ccc(CN2CCCC(C(=O)c3ccc(Cl)cc3)C2)cc1Cn1cccn1 (configuration not stated) | inactive |
| CN1CC(c2ccccn2)C2(SC(=S)N(Cc3ccccc3)C2=O)C12C(=O)Nc1ccccc12 (configuration not stated) | inactive |
| O=C(NCCO)c1ccc2[nH]c3ccccc3c2c1 | inconclusive: 10.3 µM [activator, partial curve] |
| C=CCNC(=O)c1cc(Cl)ccn1 | inconclusive: 6.51 µM [activator, partial curve, poor fit] |
| N#CC1=C(SCC(=O)NC2CCCCC2)NC(=O)CC1c1ccco1 (configuration not stated) | inactive |
| COc1ccc(C(=O)NC(C)C2CC3CCC2C3)cc1 (configuration not stated) | inconclusive: 0.231 µM [activator, single point] |
| O=[N+]([O-])c1ccc(O)c(/C=N\N=C2c3ccccc3-c3ccccc32)c1 | inconclusive: 4.61 µM [inhibitor, partial curve, poor fit] |
| C[C@H](NC(N)=O)C(=O)Nc1ccc(OCc2ccccc2)cc1 | inconclusive: 16.4 µM [activator, partial curve] |
| Cc1ccc(COc2ccsc2-c2n[nH]c(=S)n2C)cc1 | inactive |

| SMILES | Potency |
| --- | --- |
| FC(F)(F)c1ccc(-n2cnc3ccccc32)nc1 | inactive |
| Cc1ccc(-c2nnc(SCC#CCOC(=O)c3cccs3)o2)cc1 | inconclusive: 18.4 µM [activator, single point] |
| COC(=O)c1[nH]c2ccc(F)cc2c1NC(=O)C1=COCCO1 | inconclusive: 0.231 µM [activator, single point] |
| O=C(COc1cccnc1[N+](=O)[O-])N1CCc2ccccc21 | inconclusive: 23.1 µM [activator, single point] |
| COc1cccc([C@@H]2Oc3ccc(OC)cc3C(=O)[C@H]2O)c1 | inconclusive: 2.31 µM [activator, full curve] |
| COc1ccc(OC)c(Nc2nc(-c3sc(C)nc3C)cs2)c1 | inconclusive: 29.1 µM [inhibitor, single point] |
| O=C(Nc1ccc(Cl)cc1Cl)NC1CCCC1 | inconclusive: 5.8 µM [activator, single point] |
| Cc1c(Cl)c([N+](=O)[O-])nn1CCCC(=O)NCCc1ccccc1 | inconclusive: 18.3 µM [activator, partial curve] |
| CCC(C)C(=O)Nc1nnc(SCC(=O)N2C(C)CCCC2C)s1 (configuration not stated) | inconclusive: 18.3 µM [inhibitor, partial curve, poor fit] |
| COc1ccccc1C(=O)COC(=O)Cn1nc(C)c([N+](=O)[O-])c1C | inactive |
| CCNc1nc(-c2ccc(Cl)cc2)cs1 | inconclusive: 2.31 µM [activator, partial curve] |
| CN(C(N)=S)c1ccccc1 | inactive |
| COC(=O)c1ccc(CNC(=O)CCNC(=O)c2ccco2)cc1 | inactive |
| NC(=O)CCCSc1nc2ccccc2[nH]1 | inactive |
| Cc1cc2c(cc1S(=O)(=O)N1CC(C)CC(C)C1)OCC(=O)N2 (configuration not stated) | inactive |
| COc1cccc(C2C=C(Nc3ccccc3)C(=O)N2c2ccccc2)c1 (configuration not stated) | inconclusive: 18.4 µM [activator, single point] |
| Cc1cccc(S(=O)(=O)N(CC(=O)Nc2ccccc2C)Cc2ccco2)c1 | inactive |
| CC(=O)Nc1ccc(Cl)c(-c2nc3ncccc3o2)c1 | inactive |
| Cc1cccc(C(=O)NCC(=O)N2CCN(c3ccccn3)CC2)c1 | inactive |
| CN(Cc1ccccc1)C(=O)c1cccc(NC(=O)Cc2cccc([N+](=O)[O-])c2)c1 | inconclusive: 20.6 µM [inhibitor, single point] |
| C=C(C)CSc1nnc(-c2ccc(OC)cc2)n1N | inconclusive: 23.1 µM [activator, partial curve] |
| O=C(NN1C(=O)/C(=C/c2ccc(O)c(O)c2)SC1=S)c1ccccc1 | inactive |
| O=C(NCCOC(=O)c1ccc(S(=O)(=O)N2CCOCC2)cc1)c1cccnc1 | inconclusive: 29.1 µM [activator, partial curve, poor fit] |
| Cc1csc(N(C(=O)c2cccc(S(=O)(=O)N(C)C)c2)c2ccccc2)n1 | active: 14.6 µM |
| Cc1n[nH]c(C)c1N=Nc1ccc(Br)cc1 | inactive |

Exported in CSV form: entries from further up.
SMILES,Potency
COc1ccc(OC)c(Nc2nc(-c3sc(C)nc3C)cs2)c1,"inconclusive: 29.1 µM [inhibitor, single point]"
O=C(Nc1ccc(Cl)cc1Cl)NC1CCCC1,"inconclusive: 5.8 µM [activator, single point]"
Cc1c(Cl)c([N+](=O)[O-])nn1CCCC(=O)NCCc1ccccc1,"inconclusive: 18.3 µM [activator, partial curve]"
CCC(C)C(=O)Nc1nnc(SCC(=O)N2C(C)CCCC2C)s1 (configuration not stated),"inconclusive: 18.3 µM [inhibitor, partial curve, poor fit]"
COc1ccccc1C(=O)COC(=O)Cn1nc(C)c([N+](=O)[O-])c1C,inactive
CCNc1nc(-c2ccc(Cl)cc2)cs1,"inconclusive: 2.31 µM [activator, partial curve]"
CN(C(N)=S)c1ccccc1,inactive
COC(=O)c1ccc(CNC(=O)CCNC(=O)c2ccco2)cc1,inactive
NC(=O)CCCSc1nc2ccccc2[nH]1,inactive
Cc1cc2c(cc1S(=O)(=O)N1CC(C)CC(C)C1)OCC(=O)N2 (configuration not stated),inactive
COc1cccc(C2C=C(Nc3ccccc3)C(=O)N2c2ccccc2)c1 (configuration not stated),"inconclusive: 18.4 µM [activator, single point]"
Cc1cccc(S(=O)(=O)N(CC(=O)Nc2ccccc2C)Cc2ccco2)c1,inactive
CC(=O)Nc1ccc(Cl)c(-c2nc3ncccc3o2)c1,inactive
Cc1cccc(C(=O)NCC(=O)N2CCN(c3ccccn3)CC2)c1,inactive
CN(Cc1ccccc1)C(=O)c1cccc(NC(=O)Cc2cccc([N+](=O)[O-])c2)c1,"inconclusive: 20.6 µM [inhibitor, single point]"
C=C(C)CSc1nnc(-c2ccc(OC)cc2)n1N,"inconclusive: 23.1 µM [activator, partial curve]"
O=C(NN1C(=O)/C(=C/c2ccc(O)c(O)c2)SC1=S)c1ccccc1,inactive
O=C(NCCOC(=O)c1ccc(S(=O)(=O)N2CCOCC2)cc1)c1cccnc1,"inconclusive: 29.1 µM [activator, partial curve, poor fit]"
